These are yes or no findings as the source states them, for the method shown. In cells and extracts the contact can be indirect. Some results given as binding are weak or reduced against the parent protein; the word gives no strength.

Chains of the proteins cited; added tags and fusions are not shown.
UniProt Q02078: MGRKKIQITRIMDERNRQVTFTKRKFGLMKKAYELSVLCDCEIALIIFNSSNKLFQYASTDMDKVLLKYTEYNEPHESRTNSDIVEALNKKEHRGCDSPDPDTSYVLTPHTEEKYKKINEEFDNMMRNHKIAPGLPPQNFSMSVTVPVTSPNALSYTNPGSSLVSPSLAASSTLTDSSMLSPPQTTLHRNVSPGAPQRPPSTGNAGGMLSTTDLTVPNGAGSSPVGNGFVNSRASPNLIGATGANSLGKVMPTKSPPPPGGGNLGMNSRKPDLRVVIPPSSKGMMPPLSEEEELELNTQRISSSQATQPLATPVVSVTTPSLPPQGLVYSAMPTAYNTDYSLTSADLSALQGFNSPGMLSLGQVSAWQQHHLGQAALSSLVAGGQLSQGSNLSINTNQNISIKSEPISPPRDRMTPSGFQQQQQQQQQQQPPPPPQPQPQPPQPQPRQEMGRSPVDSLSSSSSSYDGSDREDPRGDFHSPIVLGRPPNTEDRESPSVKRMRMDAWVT
UniProt Q15796: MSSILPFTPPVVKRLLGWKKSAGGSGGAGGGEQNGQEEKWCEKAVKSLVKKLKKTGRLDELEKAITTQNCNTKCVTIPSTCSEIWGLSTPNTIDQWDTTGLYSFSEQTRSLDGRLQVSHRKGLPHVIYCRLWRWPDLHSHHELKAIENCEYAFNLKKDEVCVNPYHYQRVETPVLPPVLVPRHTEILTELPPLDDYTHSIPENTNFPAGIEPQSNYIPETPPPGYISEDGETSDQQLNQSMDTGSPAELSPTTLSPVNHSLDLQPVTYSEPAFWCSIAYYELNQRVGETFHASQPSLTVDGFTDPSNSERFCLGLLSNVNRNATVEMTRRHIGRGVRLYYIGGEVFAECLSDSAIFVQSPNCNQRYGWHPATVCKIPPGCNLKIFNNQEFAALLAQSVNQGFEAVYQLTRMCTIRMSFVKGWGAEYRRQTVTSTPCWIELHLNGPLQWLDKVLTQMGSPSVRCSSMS

In test [1] the target is Myocyte enhancer factor 2A (human (endogenous in HUVECs)) (UniProt Q02078). Put plainly: proximity ligation; Duolink in situ PLA on HUVECs fixed in 4% formaldehyde; anti-MEF2A (mouse) and anti-Smad2 (rabbit); control and high glucose (HG) groups; confocal microscopy.
Test [2] shares this target. The test can be described thus: co-IP; HUVEC lysate (Lysis Buffer P0013 with PMSF) incubated with MEF2A, Smad2 and IgG antibody at 4°C overnight, Protein A/G sepharose beads 6 h, washed three times; SDS-PAGE and Western blot.

With Smad2 (from UniProt Q15796 1-467), the binding result in test [1] and in test [2] was “binds” throughout.

The values are drawn from publication PMC5058738.
